According to paper PMC6172828:

Biological target: T1, 3xFLAG-ATF7IP K16R mutant (stably expressed in Atf7ip KO mESCs) (mouse) (UniProt Q7TT18)
T1 sequence: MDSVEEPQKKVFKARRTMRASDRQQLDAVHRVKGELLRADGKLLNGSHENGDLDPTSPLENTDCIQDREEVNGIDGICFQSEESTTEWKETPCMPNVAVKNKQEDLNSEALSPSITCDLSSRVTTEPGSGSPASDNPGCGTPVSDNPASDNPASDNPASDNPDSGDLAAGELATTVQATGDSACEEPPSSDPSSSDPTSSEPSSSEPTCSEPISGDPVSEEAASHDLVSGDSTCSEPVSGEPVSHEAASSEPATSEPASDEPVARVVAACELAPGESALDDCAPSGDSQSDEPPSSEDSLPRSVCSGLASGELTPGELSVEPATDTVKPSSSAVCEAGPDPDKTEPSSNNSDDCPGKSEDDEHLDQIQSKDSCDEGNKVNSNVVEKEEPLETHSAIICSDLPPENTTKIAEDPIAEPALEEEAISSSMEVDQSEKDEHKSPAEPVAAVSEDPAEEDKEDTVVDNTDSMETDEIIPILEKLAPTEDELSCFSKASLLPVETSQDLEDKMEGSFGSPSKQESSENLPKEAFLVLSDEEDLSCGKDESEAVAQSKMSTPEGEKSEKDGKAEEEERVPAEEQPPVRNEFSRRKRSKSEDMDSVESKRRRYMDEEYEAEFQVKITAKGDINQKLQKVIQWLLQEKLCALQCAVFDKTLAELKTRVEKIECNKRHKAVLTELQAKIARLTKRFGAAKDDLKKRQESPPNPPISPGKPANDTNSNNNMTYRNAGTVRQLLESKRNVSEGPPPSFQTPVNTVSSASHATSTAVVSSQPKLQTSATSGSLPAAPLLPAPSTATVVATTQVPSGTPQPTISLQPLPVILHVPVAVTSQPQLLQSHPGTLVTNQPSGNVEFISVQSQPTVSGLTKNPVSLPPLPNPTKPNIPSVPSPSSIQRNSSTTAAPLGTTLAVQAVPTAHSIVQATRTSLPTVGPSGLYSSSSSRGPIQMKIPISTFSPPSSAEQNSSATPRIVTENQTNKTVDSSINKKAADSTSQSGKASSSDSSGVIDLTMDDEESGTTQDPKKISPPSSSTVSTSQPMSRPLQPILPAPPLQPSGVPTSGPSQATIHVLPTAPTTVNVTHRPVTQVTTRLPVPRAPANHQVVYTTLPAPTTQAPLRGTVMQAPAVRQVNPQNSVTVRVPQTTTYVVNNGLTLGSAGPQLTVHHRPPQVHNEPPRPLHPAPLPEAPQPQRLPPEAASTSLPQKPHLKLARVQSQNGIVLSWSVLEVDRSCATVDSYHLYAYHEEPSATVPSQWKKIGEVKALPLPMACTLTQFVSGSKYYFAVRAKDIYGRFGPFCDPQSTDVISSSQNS
Test: affinity purification with mass spectrometry; Atf7ip KO mESCs expressing 3xFLAG-ATF7IP WT, K16R or neither; normal-lysis buffer (150 mM NaCl, 1% NP-40), anti-FLAG M2 antibody and Protein G Dynabeads; LC–MS/MS

B1: M-phase phosphoprotein 8 (MPP8), endogenous in mESCs (protein, UniProt Q3TYA6 1-858)
chain: MAAAAEEGMSAAALVMSVPDSIGRSPESEGVGAGDEEKDAATKGTVAVGDSEEDGEDVFEVERILDMKCEGGKNLYKVRWKGYTSEDDTWEPEVHLEDCKEVLLEFRKKLAENKAKAVRKDIQRLSLNNDIFEADSDSDQQSDTKEDISPRKKKKKIKCKEETSPEDLRKKRTKMGKLKDKFKTELESTSEIIGFDVKTKKRIWEVKEELKDSKKPKKDEIKETKELKKANKRAEVRDLKIKIREDVKENRKTKKERYIESPLESESPNDSLILEDDSEDFISDNREENQNVRSVRDKTAQETVQEGIFEKHLDDLISIEEDAGTRVRRKKTKPRKFEEPKEIKKLESTNAFLERRAIPKKQRNQDKGISNLELNKLPSPVFAQTLKSSRLSGEEKSLKSPDLAEEEKEKKNEPKGKYQKRYDLDKEEKARKEPKVLKSFKEIRNAFDLFKKTTEEKNDVLENNSKREEISLDSKIMNDNKTKDKCSLKEKRNTRDETDTWAYIAAEGDQEVSDSVCQTDETSDGRQPVLSLGMDLQLEWMKLEDFQKHLDGEDEPFITTNRIPNNLLRDAVKNGDYIAVKVALNSNEEYNLDQEDSTGMTLVMLAAAGGQDDLLRLLITKGAKVNGRQKNGTTALIHAAEKNFLTTVAILLEAGAFVNVQQSNGETALMKACKRGNSDIVRLVIECGADCNILSKHQNSALYFAKQCNNVLVYELLKSHLETLSRVAEETIRDYFESRLALLEPVFPIACHRLCEGPDFSTDFNYMPPQNMPEGSGVLLFIFHANFLGKDVIARLCGPCSVQAVVLNDKFQLPVFLDSHFVYSFSPVAGPNKLFIRLTEAPFAKVKLLIGAYRVQLQ
binding: no binding

B2: ADNP, endogenous in mESCs (protein, UniProt Q9Z103 1-1108)
chain: MFQLPVNNLGSLRKARKTVKKILSDIGLEYCKEHIEDFKQFEPNDFYLKNTTWEDVGLWDPSLTKNQDYRTKPFCCSACPFSSKFFSAYKSHFRNVHSEDFENRILLNCPYCTFNADKKTLETHIKIFHAPNSSAPSSSLSTFKDKNKNDGLKPKQADNVEQAVYYCKKCTYRDPLYEIVRKHIYREHFQHVAAPYIAKAGEKSLNGAVSLGTNAREECNIHCKRCLFMPKSYEALVQHVIEDHERIGYQVTAMIGHTNVVVPRAKPLMLIAPKPQDKKGMGLPPRISSLASGNVRSLPSQQMVNRLSIPKPNLNSTGVNMMSNVHLQQNNYGVKSVGQSYGVGQSVRLGLGGNAPVSIPQQSQSVKQLLPSGNGRSFGLGAEQRPPAAARYSLQTANTSLPPGQVKSPSVSQSQASRVLGQSSSKPPPAATGPPPSNHCATQKWKICTICNELFPENVYSVHFEKEHKAEKVPAVANYIMKIHNFTSKCLYCNRYLPTDTLLNHMLIHGLSCPYCRSTFNDVEKMAAHMRMVHIDEEMGPKTDSTLSFDLTLQQGSHTNIHLLVTTYNLRDAPAESVAYHAQNNAPVPPKPQPKVQEKADVPVKSSPQAAVPYKKDVGKTLCPLCFSILKGPISDALAHHLRERHQVIQTVHPVEKKLTYKCIHCLGVYTSNMTASTITLHLVHCRGVGKTQNGQDKTNAPSRLNQSPGLAPVKRTYEQMEFPLLKKRKLEEDADSPSCFEEKPEEPVVLALDPKGHEDDSYEARKSFLTKYFNKQPYPTRREIEKLAASLWLWKSDIASHFSNKRKKCVRDCEKYKPGVLLGFNMKELNKVKHEMDFDAEWLFENHDEKDSRVNASKTVDKKHNLGKEDDSFSDSFEHLEEESNGSGSPFDPVFEVEPKIPSDNLEEPVPKVIPEGALESEKLDQKEEEEEEEEEDGSKYETIHLTEEPAKLMHDASDSEVDQDDVVEWKDGASPSESGPGSQQISDFEDNTCEMKPGTWSDESSQSEDARSSKPAAKKKATVQDDTEQLKWKNSSYGKVEGFWSKDQSQWENASENAERLPNPQIEWQNSTIDSEDGEQFDSMTDGVADPMHGSLTGVKLSSQQA
binding: no binding

No constants are given. Whether binding was seen depends on the method and setting. Binding seen in cells or lysates may run through a third protein. These calls come from enrichment with a bait or labelling near it, and not all partners need be listed. No binding means not detected with the bait. Where a sequence is shown, tags or fusion partners need not be part of it.
